Results from the supplement of paper PMC9877034.
Where a name gives a salt, the structure may show the parent alone. Whole data set: some 1,000 compounds, median “cFRET/donor change relative to DMSO, normalised to beta-lapachone positive control (supercomplex I-IV assembly)” near 0.18, cut for the lowest 2% near -1. The list shows a part of the results.

Tested on: C2C12 (NDUFB8-AcGFP / COX8A-DsRed-Monomer FRET reporter)
Assay: cFRET/donor change relative to DMSO, normalised to beta-lapachone positive control (supercomplex I-IV assembly) (fraction of beta-lapachone effect); higher = more respiratory supercomplex assembly
Conditions: 40 µM; 24 h
Protocol: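 Cells were treated with 40 uM compound for 24 h and imaged on an IN Cell Analyzer 6000. Corrected FRET was divided by donor signal (cFRET/donor) and measured in two replicate experiments. The score is (mean cFRET/donor of compound - mean DMSO) / (mean beta-lapachone 40 uM - mean DMSO). Compounds flagged for prominent cell death, abnormal morphology or decreased cell number were excluded.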

Row | Structure (SMILES) | cFRET/donor change
1 | O=C(N[C@H]1CN2CCC1CC2)c1cc2ccoc2cn1 | -0.39
2 | C=C(C)[C@H]1CN[C@H](C(=O)O)[C@H]1CC(=O)O [Kainic acid] | 0.149
3 | O=C(N[C@H]1CN2CCC1CC2)c1ccc(Cl)cc1 | 0.638
4 | O=[N+]([O-])c1ccc2nc(N3CCNCC3)ccc2c1 [Quipazine, 6-nitro-, maleate] | 0.153
5 | N#Cc1ccc(N2CCN(C(=O)COc3ccc4[nH]cc(CCN)c4c3)CC2)cc1 [Donitriptan monohydrochloride] | 0.152
6 | c1ccc2c(N3CCNCC3)cccc2c1 [1-(1-Naphthyl)piperazine hydrochloride] | 0.293
7 | N=C(N)NN [Aminoguanidine hemisulfate] | 0.162
8 | N=C(N)NN [Aminoguanidine hydrochloride] | -0.0493
9 | CC(C)N(CCC(C(N)=O)(c1ccccc1)c1ccccn1)C(C)C (configuration not stated) [Disopyramide phosphate] | 0.118
10 | CC(C)N(CCC(C(N)=O)(c1ccccc1)c1ccccn1)C(C)C (configuration not stated) [Disopyramide] | -0.199
11 | CC(Cc1ccc(OCC(=O)O)cc1)NCC(O)c1cccc(Cl)c1 (configuration not stated) | 0.271
12 | CC(C)=CCOc1c2occc2cc2ccc(=O)oc12 [Imperatorin] | 0.183
13 | C=CCN1C[C@H](C)N([C@H](c2ccc(C(=O)N(CC)CC)cc2)c2cccc(OC)c2)C[C@H]1C | 0.538
14 | O=[N+]([O-])c1cc(O)c(O)c([N+](=O)[O-])c1 [3,5-Dinitrocatechol] | -0.196
15 | C[C@H](N)CN1CCc2ccc(Br)cc21 [VER-3323 hemifumarate salt] | 0.26
16 | CN1[C@@H]2CC[C@H]1C[C@@H](OC(=O)[C@H](CO)c1ccccc1)C2 [L-Hyoscyamine] | 0.00396
17 | Clc1cnc(Oc2ccc(Oc3ncc(Cl)cc3Cl)cc2)c(Cl)c1 | 0.196
18 | CNCCc1ccc(O)c(O)c1 [N-Methyldopamine hydrochloride] | 0.343
19 | COc1ccc2c(c1)[C@]13CCCC[C@@H]1[C@H](C2)N(C)CC3 [Dextromethorphan hydrobromide monohydrate] | 0.421
20 | CCCN1CCC[C@@H]2Cc3nc(N)ncc3C[C@H]21 [Quinelorane dihydrochloride] | 0.181
21 | CNCC(O)c1ccc(O)cc1 (racemic) [(±)-Synephrine] | 0.505

Row | Structure (SMILES) | cFRET/donor change
22 | CC(Cc1ccc(O)cc1)NCC(O)c1cc(O)cc(O)c1 (configuration not stated) [Fenoterol hydrobromide] | 0.255
23 | C1CCc2nnnn2CC1 [Pentylenetetrazole] | 0.498
24 | CC(C)(C)c1cc(C(C)(C)C)c2c(c1)C(O)(C(F)(F)F)C(=O)O2 (racemic) | 0.569
25 | O=c1[nH]c2ccccc2n1CCCN1CCC(n2c(=O)[nH]c3cc(Cl)ccc32)CC1 [Domperidone] | 0.254
26 | NC(N)=NOCC[C@H](N)C(=O)O [L-Canavanine] | 0.0375
27 | NC(N)=NOCC[C@H](N)C(=O)O [L-Canavanine sulfate] | -0.00844
28 | N[C@@H](Cn1oc(=O)[nH]c1=O)C(=O)O [(+)-Quisqualic acid] | 0.0742
29 | C[N+]1(C)CCOC(O)(c2ccc(-c3ccc(C4(O)C[N+](C)(C)CCO4)cc3)cc2)C1 (configuration not stated) [Hemicholinium-3] | -6.84e-05
30 | Nc1ccncc1 [4-Aminopyridine] | 0.364
31 | CC[C@@H](C(N)=O)N1CCCC1=O [Levetiracetam] | -0.109
32 | CCS(=O)(=O)Nc1cccc(C(=C2CCCCC2)c2cnc[nH]2)c1 | 0.149
33 | Cc1[nH]c2ccc(O)cc2c1CCN [2-Methyl-5-hydroxytryptamine maleate] | -0.273
34 | COc1ccc(C(=O)N2CCCC2=O)cc1 [Aniracetam] | 0.184
35 | CCCCCCCCCCCCCC(=O)O[C@@H]1[C@@H](C)[C@@]2(O)[C@@H](C=C(CO)C[C@]3(O)C(=O)C(C)=C[C@@H]23)[C@@H]2C(C)(C)[C@]12OC(C)=O [Phorbol 12-myristate 13-acetate] | -0.00691
36 | O=C1/C(=C/c2ccccc2)C[C@@]2(O)[C@H]3Cc4ccc(O)c5c4[C@@]2(CCN3CC2CC2)[C@H]1O5 [BNTX maleate salt hydrate] | 0.649
37 | CN1CCC(c2c[nH]c3ccc(O)cc23)CC1 | 0.0828
38 | CC(N)Cc1c[nH]c2ccc(OCc3cccs3)cc12 (configuration not stated) | 0.478
39 | CC(C)(C)OC(=O)NC1[C@H]2CNC[C@@H]12 (some centres not stated) | 0.223
40 | C[N+](C)(C)CC#CCN1CCCC1=O [Oxotremorine methiodide] | -0.0709
41 | NC(=O)c1ccc(OCC(O)CN2CC=C(c3ccc(F)cc3)CC2)cc1 (configuration not stated) | 0.0729
42 | NC(=O)CN1CC(O)CC1=O (configuration not stated) [Oxiracetam] | 0.345

Row | Structure (SMILES) | cFRET/donor change
43 | CC[C@@]1(O)C(=O)OCc2c1cc1n(c2=O)Cc2cc3ccccc3nc2-1 [(S)-(+)-Camptothecin] | -0.169
44 | NC(CCP(=O)(O)O)C(=O)O (racemic) [(±)-2-Amino-4-phosphonobutyric acid] | 0.0445
45 | CN1C[C@H](C(=O)N[C@]2(C)O[C@@]3(O)[C@@H]4CCCN4C(=O)[C@H](Cc4ccccc4)N3C2=O)C[C@@H]2c3cccc4[nH]cc(c34)C[C@H]21 [Dihydroergotamine methanesulfonate] | 0.0998
46 | C[N+]1(C)[C@@H]2CC[C@H]1C[C@@H](OC(=O)C(CO)c1ccccc1)C2 (some centres not stated) [Atropine methyl nitrate] | 0.332
47 | C[N+]1(C)[C@@H]2CC[C@H]1C[C@@H](OC(=O)C(CO)c1ccccc1)C2 (some centres not stated) [Atropine methyl bromide] | 0.282
48 | C[N+](C)(C)CCCCCCCCCC[N+](C)(C)C [Decamethonium dibromide] | 0.584
49 | N=C(N)c1ccc(CS(=O)(=O)F)cc1 [4-Amidinophenylmethanesulfonyl fluoride hydrochloride] | 0.194
50 | CC(CCc1ccccc1)NC(C)C(O)c1ccc(O)cc1 (configuration not stated) [Nylidrin hydrochloride] | -0.016
51 | OC1CCCCC1N1CCC(c2ccccc2)CC1 (racemic) [(±)-Vesamicol hydrochloride] | 0.446
52 | CCCN1C[C@H](CSC)C[C@@H]2c3cccc4[nH]cc(c34)C[C@H]21 [Pergolide methanesulfonate] | 0.212
53 | CCCCc1ccc(C(=O)O)nc1 [Fusaric acid] | 0.216
54 | N.N.[Cl][Pt][Cl] [Cisplatin] | 0.276
55 | C[N+](C)(C)CC#CCOC(=O)Nc1cccc(Cl)c1 | 0.565
56 | Cc1ncc(CNC(=O)N(CCCl)N=O)c(N)n1 [Nimustine hydrochloride] | 0.109
57 | COc1ccc2[nH]cc(CCN)c2c1 [O-Methylserotonin hydrochloride] | 0.535
58 | CC(N)Cc1c[nH]c2ccc(O)cc12 (stereo not drawn) [alpha-Methyl-5-hydroxytryptamine maleate] | -0.286
59 | c1ccc(C2(c3ccccc3)CC2C2=NCCN2)cc1 (configuration not stated) [Cibenzoline succinate] | 0.549
60 | CCCN(CCC)C1CCc2ccc(O)cc2C1 (stereo not drawn) [R-(+)-7-Hydroxy-DPAT hydrobromide] | 0.116
61 | CN1CCC[C@@H]1Cc1c[nH]c2ccc(Nc3ncccc3[N+](=O)[O-])cc12 | 0.0254
62 | O=C1CCCN1CC#CCN1CCCC1 [Oxotremorine sesquifumarate salt] | -0.0621
63 | NNC(=O)c1ccc(O)cc1 [4-Hydroxybenzhydrazide] | -0.0961

Given as tab-separated lines: part of the list above
Row	Structure (SMILES)	cFRET/donor change
43	CC[C@@]1(O)C(=O)OCc2c1cc1n(c2=O)Cc2cc3ccccc3nc2-1 [(S)-(+)-Camptothecin]	-0.169
50	CC(CCc1ccccc1)NC(C)C(O)c1ccc(O)cc1 (configuration not stated) [Nylidrin hydrochloride]	-0.016
51	OC1CCCCC1N1CCC(c2ccccc2)CC1 (racemic) [(±)-Vesamicol hydrochloride]	0.446
61	CN1CCC[C@@H]1Cc1c[nH]c2ccc(Nc3ncccc3[N+](=O)[O-])cc12	0.0254
63	NNC(=O)c1ccc(O)cc1 [4-Hydroxybenzhydrazide]	-0.0961

(next part)

Row | Structure (SMILES) | cFRET/donor change
64 | NCCCP(=O)(O)O [3-Aminopropylphosphonic acid] | -0.0863
65 | CNCCc1c[nH]c2ccc(O)cc12 [N-omega-Methyl-5-hydroxytryptamine oxalate salt] | 0.0949
66 | COc1ccc(Cc2nccc3cc(OC)c(OC)cc23)cc1OC [Papaverine hydrochloride] | 0.155
67 | NNC(N)=O [Semicarbazide hydrochloride] | 0.232
68 | O=C[C@H](Cl)[C@@H](O)[C@H](O)[C@H](O)CO [2-Chloro-2-deoxy-D-glucose] | 0.124
69 | C=C(C)[C@H]1Cc2c(ccc3c2O[C@@H]2COc4cc(OC)c(OC)cc4[C@@H]2C3=O)O1 [Rotenone] | 0.333
70 | COC(=O)C1=CCCN(C)C1 [Arecoline hydrobromide] | 0.275
71 | Fc1ccc(C(OCCN2CCN(CCCc3ccccc3)CC2)c2ccc(F)cc2)cc1 | 0.565
72 | NC(=O)COc1c(F)cc(SCCNS(=O)(=O)c2ccccc2)cc1F | 0.186
73 | CCCN1CCC[C@H](c2cccc(O)c2)C1 [R(+)-3PPP hydrochloride] | 0.436
74 | C[N+]1(C)CCN(c2ccccc2)CC1 [1,1-Dimethyl-4-phenyl-piperazinium iodide] | 0.15
75 | CCn1cc(C(=O)O)c(=O)c2cc3c(cc21)OCO3 [Oxolinic acid] | -0.248
76 | C[N+]1(C)[C@@H]2C[C@@H](OC(=O)[C@H](CO)c3ccccc3)C[C@H]1[C@@H]1O[C@@H]12 [(-)-Scopolamine methyl bromide] | 0.155
77 | CN(C(=O)Cc1ccc(Cl)c(Cl)c1)C(CN1CCCC1)c1cccc(OCC(=O)O)c1 (configuration not stated) [ICI 204,448 hydrochloride] | 0.0516
78 | NCCc1ccc(O)cc1 [4-Hydroxyphenethylamine hydrochloride] | 0.427
79 | NCC(O)c1ccc(O)cc1 (racemic) [(±)-Octopamine hydrochloride] | -0.284
80 | C[C@@H](N)Cc1cnc[nH]1 [Histamine, R(-)-alpha-methyl-, dihydrochloride] | 0.0952
81 | Clc1cc(I)cc(Cl)c1NC1=NCCN1 [p-Iodoclonidine hydrochloride] | 0.369
82 | C[C@@H]1O[C@@H](O[C@H]2C[C@@H](O)[C@]3(CO)[C@H]4[C@H](O)C[C@]5(C)[C@@H](C6=CC(=O)OC6)CC[C@]5(O)[C@@H]4CC[C@]3(O)C2)[C@H](O)[C@H](O)[C@H]1O [Ouabain] | -0.0497
